These are yes or no findings as the source states them, for the method shown. In cells and extracts the contact can be indirect. Some results given as binding are weak or reduced against the parent protein; the word gives no strength.
What was measured:
[1] = target: Prokineticin receptor 2 (PKR2), His-tagged, expressed in S. cerevisiae from pYESC3-PKR2 (UniProt Q8NFJ6); test: pull-down; solubilized yeast membrane fractions co-expressing His-tagged PKR2 or ΔN-PKR2 with MRAP2, co-precipitated on Ni-NTA His-bind resin under native conditions; blots with anti-His and anti-MRAP2
[2] = target: Prokineticin receptor 2 (PKR2), His-tagged, expressed in S. cerevisiae from pYESC3-PKR2 (UniProt Q8NFJ6); test: cross-linking; membrane fraction (20 μg of protein) of yeast co-expressing PKR2 or ΔN-PKR2 with MRAP2, 1 mM BS3 in 25 mM MOPS pH 7.5, 30 min at room temperature; SDS-PAGE, blot with anti-MRAP2
[3] = target: GST fusion protein PKR2-NT (the 69 amino acids of the amino terminus of PKR2 fused with GST) (UniProt Q8NFJ6); test: pull-down; R2-GST (PKR2-NT) or GST on glutathione-Sepharose beads, buffer A (PBS, 1% Nonidet P 40, 1 mM EDTA), incubated overnight at 4 °C with total membrane extract of yeast expressing MRAP2; eluted with GSH; Western blot; only the target purified

Chains of the proteins cited; added tags and fusions are not shown. Lines headed by an entry give the natural chain unless they say otherwise; changes in a name come on top. A line that says so, or that is headed by a name, gives the form on record, which may keep a tag or linker. Residues count along the entry.
UniProt Q8NFJ6: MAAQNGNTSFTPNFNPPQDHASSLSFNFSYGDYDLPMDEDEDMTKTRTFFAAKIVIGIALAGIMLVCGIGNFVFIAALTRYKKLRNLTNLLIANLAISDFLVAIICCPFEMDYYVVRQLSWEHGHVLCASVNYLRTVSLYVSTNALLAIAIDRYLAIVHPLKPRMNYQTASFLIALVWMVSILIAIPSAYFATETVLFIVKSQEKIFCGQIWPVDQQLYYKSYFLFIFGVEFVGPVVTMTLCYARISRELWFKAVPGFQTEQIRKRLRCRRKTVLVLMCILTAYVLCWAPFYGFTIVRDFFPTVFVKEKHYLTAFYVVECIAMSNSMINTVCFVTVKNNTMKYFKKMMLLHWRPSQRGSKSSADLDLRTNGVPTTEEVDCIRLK
GST fusion protein PKR2-NT (the 69 amino acids of the amino terminus of PKR2 fused with GST): residues 1-69 of Q8NFJ6

Measured: binding

B1: Melanocortin Receptor Accessory Protein 2 (MRAP2), expressed in S. cerevisiae from p413 MRAP2 (protein, UniProt Q96G30 1-205)
chain: MSAQRLISNRTSQQSASNSDYTWEYEYYEIGPVSFEGLKAHKYSIVIGFWVGLAVFVIFMFFVLTLLTKTGAPHQDNAESSEKRFRMNSFVSDFGRPLEPDKVFSRQGNEESRSLFHCYINEVERLDRAKACHQTTALDSDVQLQEAIRSSGQPEEELNRLMKFDIPNFVNTDQNYFGEDDLLISEPPIVLETKPLSQTSHKDLD
binds: all assays above

— publication PMC8946000
